Assay results as given in patent US12535491B2, “Vaccine comprising protein-targeted (PT) extracellular DNA isolated from bacterial matrix” (priority 2018, dated 2026).

Tested on: heat-resistant proteins of human plasma
Experiment: LC/MS of heat-resistant proteins in plasma after exposure to proteinase K and boiling

B1: ITIH2_HUMAN (+1) (protein, UniProt P19823 55-702, looked up)
Inter-alpha-trypsin inhibitor …: SLPGESEEMMEEVDQVTLYSYKVQSTITSRMATTMIQSKVVNNSPQPQNVVFDVQIPKGAFISNFSMTVDGKTFRSSIKEKTVGRALYAQARAKGKTAGLVRSSALDMENFRTEVNVLPGAKVQFELHYQEVKWRKLGSYEHRIYLQPGRLAKHLEVDVWVIEPQGLRFLHVPDTFEGHFDGVPVISKGQQKAHVSFKPTVAQQRICPNCRETAVDGELVVLYDVKREEKAGELEVFNGYFVHFFAPDNLDPIPKNILFVIDVSGSMWGVKMKQTVEAMKTILDDLRAEDHFSVIDFNQNIRTWRNDLISATKTQVADAKRYIEKIQPSGGTNINEALLRAIFILNEANNLGLLDPNSVSLIILVSDGDPTVGELKLSKIQKNVKENIQDNISLFSLGMGFDVDYDFLKRLSNENHGIAQRIYGNQDTSSQLKKFYNQVSTPLLRNVQFNYPHTSVTDVTQNNFHNYFGGSEIVVAGKFDPAKLDQIESVITATSANTQLVLETLAQMDDLQDFLSKDKHADPDFTRKLWAYLTINQLLAERSLAPTAAAKRRITRSILQMSLDHHIVTPLTSLVIENEAGDERMLADAPPQDPSCCSGALYYGSKVVPDSTPSWANPSPTPVISMLAQGSQVLESTPPPHVMRVEND
LC/MS, control plasma with added proteinase K, heated at 100° C. for 5 minutes
  N-plasma + pk: 24
Change on adding proteinase K to normal plasma
  Effect (N-plasma + pk vs N-plasma): ↑
